According to PubChem BioAssay AID1487 (National Center for Advancing Translational Sciences (NCATS), 2009):
This is one part of the list. Further columns of the screen follow, without active or inactive calls. The list favours compounds with an active or inconclusive main result. Words in brackets tell the shape of the fitted curve; partial curves, single points and poor fits give uncertain potencies.

Test: qHTS Assay for Modulators of Lamin A Splicing
Conditions: HeLa LMNA splicing GFP/RFP minigene ratio, 48 h
Outline: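 S3 HeLa cells stably expressing lamin A-EGFP splicing minigene plus DsRed2, 600 cells/well, 48 h compound exposure at 37C. Laser-scanning cytometry; analysed as GFP (500-530 nm)/RFP (575-640 nm) total intensity ratio; 0.5% DMSO vehicle.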

[1] = measured here: RFP viability control channel
[2] = measured here: GFP splicing reporter channel

## Cc1ccc2c(nc3s/c(=C/c4cccs4)c(=O)n32)c1C
[1]
  AC50: 35.5 µM [rising, single point]

## NS(=O)(=O)c1ccc(NCc2cc(Cl)ccc2OCc2ccc(F)cc2)cc1
[1]
  AC50: 12.6 µM [rising, partial curve]

## O=C(CCS(=O)(=O)c1ccc(Br)s1)N1CCc2ccccc21
[1]
  AC50: 35.5 µM [rising, single point]

## C=CCOc1cccc(/C=N/NC(=O)CN(c2cc(Cl)ccc2OC)S(=O)(=O)c2ccc(C)c([N+](=O)[O-])c2)c1
[1]
  AC50: 12.6 µM [rising, partial curve]

## Cc1cccc(CSc2nc(=O)c3c(n2C)NC(=O)CC3c2cc(F)cc(F)c2)c1 (stereo unspecified)
[1]
  AC50: 15.8 µM [rising, single point]

## O=C(Nc1ccc(N2CCOCC2)cc1)c1ccc(-c2ccccc2[N+](=O)[O-])o1
[2]
  AC50: 15.8 µM [falling, single point]
[1]
  AC50: 6.31 µM [falling, partial curve]

## COc1ccc(OC)c(C(=O)COC(=O)c2ccccc2O)c1
[2]
  AC50: 11.2 µM [rising, single point]

## CCOC(=O)/C(=C\c1ccc(C)cc1)NC(=O)c1ccccc1
[1]
  AC50: 35.5 µM [rising, single point]

## Cc1ccccc1C(=O)NC(=S)NC1CCSC1=O (stereo unspecified)
[2]
  AC50: 1.26 µM [rising, partial curve, poor fit]
[1]
  AC50: 17.8 µM [rising, single point]

## Cc1ccc(C2CC(=O)C=C(Nc3ccc(Cl)cc3)C2)cc1 (stereo unspecified)
[1]
  AC50: 14.1 µM [rising, partial curve, poor fit]

## COc1ccc(Cc2nn3c(-c4cc(OC)c(OC)c(OC)c4)nnc3s2)cc1
[1]
  AC50: 31.6 µM [rising, single point]

## O=C(COc1ccc(/C=N/NC(=O)c2cc3ccccc3o2)cc1Br)Nc1ccccc1
[2]
  AC50: 3.55 µM [falling, full curve]
[1]
  AC50: 4.47 µM [falling, full curve]

## CCOC(=O)N1CCN(c2c(NCc3ccc(Cl)cc3)c(=O)c2=O)CC1
[1]
  AC50: 3.55 µM [rising, single point]

## O=C(/C=C/c1c(F)cccc1Cl)Nc1nc2ccccc2[nH]1
[2]
  AC50: 6.31 µM [rising, partial curve]

## C=C(C)C(=O)Nc1nnc(-c2cccs2)s1
[1]
  AC50: 12.6 µM [rising, partial curve]

## CC(C)(C)c1nc2ccccc2c2nnc(SCC(=O)NCc3ccco3)n12
[2]
  AC50: 11.2 µM [rising, partial curve, poor fit]

## O=c1[nH]c2ccccc2n1CCCSCCCn1c(=O)[nH]c2ccccc21
[2]
  AC50: 8.91 µM [rising, partial curve, poor fit]
[1]
  AC50: 20 µM [rising, partial curve]
